Reference: patent US20020127182A1, “Paramagnetic metal ion-based macrocylic magnetization transfer contrast agents and method of use” (Board of Regents, The University of Texas System, priority 2000, published 2002)

Assays:
Format in all cases: physicochemical
[1] = Proton chemical shift of bound water of Ln(1)^3+ complexes relative to bulk water (1H NMR)
Text: As further illustrated in Table 1, the proton chemical shifts of bound water in these lanthanide-macrocylic complexes, δ, relative to bulk water, at 0 ppm are generally highly shifted, either more than 6 ppm downfield or upfield (i.e., ±6 ppm or more), depending upon the properties of the central lanthanide ions. At 1.5 Tesla (T), a magnetic field strength presently used by many commercial MRI scanners, the exchange limit regimes, Δω•τM, of Eu(1)^3+, Tb(1)^3+, Dy(1)^3+, and Ho(1)^3+ are all greater than 1. At higher fields, however, such as 4.7 T and 11.75 T, more lanthanide complexes have exchange limit regimes greater than 1, with Δω•τM increasing as field strength increases. Therefore, favorable MT contrast effects are available for a broad range of lanthanide-macrocylic complexes over a broad range of magnetic field strengths. […]

[2] = Effect of saturation duration time and power on MT to bulk water, Ln(1)^3+; settings: 4.7 T
[3] = MT profiles (Z-profiles, CEST profiles) of Ln(1)^3+ complexes at 4.7 T; settings: 62.5 mM, neutral pH, 1 s, 16 db
Method: In a second experiment, MT profiles, also known as Z-profiles or CEST profiles, were obtained for lanthanide-macrocylic complexes of the general formula Ln(1)^3+. FIGS. 4-7 show representative spectra in the absence of saturation (bulk water peak at 0 ppm truncated to make the bound water peaks more visible) and MT profiles for Eu(1)^3+, Pr(1)^3+, Nd(1)^3+ and Yb(1)^3+ complexes, respectively, all measured at 4.7 T. All experiments were conducted using aqueous 62.5 mM Ln(1)^3+ adjusted to neutral pH and about 22° C., using an saturation duration time of 1 s, RF power of 16 db, and a 2.5 cm surface coil. […] Among these three complexes, Eu(1)^3+, shown in FIG. 4, had the greatest effect when the saturating pulse was centered at about 50 ppm (arrow): about a 60% decrease in the magnetization of bulk water, Ms, as compared to the magnetization of bulk water in the absence of a saturating pulse, Mo. Importantly, as indicated by a Ms/Mo of about 100%, when the counter-position (i.e., −50 ppm) was saturated, there was no distortion in the bulk water signal. Of course when the saturation pulse is directed to 0 ppm (arrow) there is no signal and therefore Ms/Mo is about 0%.

[4] = 1H NMR spectra of Ln(9)^3+ complexes, exchangeable amide protons
Text: For certain Ln(9)^3+ complexes, for example, with Ln equal to Yb or Tm, the bound water molecules are ^1H NMR invisible probably due to the fast exchange between the bound water and the bulk water. […] Unfortunately, the NMR signal was invisible, probably due to its fast exchange with the bulk water. However, the eight exchangeable amide protons present as two resonance peaks with equivalent intensity, at −14.5 (Ha) and −17.7 (Hb) ppm, respectively, are visible.

[5] = Concentration dependence of MT effect of Yb(9)^3+; settings: pH 7.4, room temperature
[6] = pH dependence of MT and MT ratios of Yb(9)^3+; settings: 30 mM, 25° C.

In the case of CCOC(=O)CNC(=O)CN1CCN(CC(=O)NCC(=O)OCC)CCN(CC(=O)NCC(=O)OCC)CCN(CC(=O)NCC(=O)OCC)CC1.[Dy+3] [Dy(1)^3+], the “Observation of bound water” value [1] is reported as “No”.
With CCOC(=O)CNC(=O)CN1CCN(CC(=O)NCC(=O)OCC)CCN(CC(=O)NCC(=O)OCC)CCN(CC(=O)NCC(=O)OCC)CC1.[Er+3] [Er(1)^3+] the “Observation of bound water” value [1] was “No”.
In the case of CCOC(=O)CNC(=O)CN1CCN(CC(=O)NCC(=O)OCC)CCN(CC(=O)NCC(=O)OCC)CCN(CC(=O)NCC(=O)OCC)CC1.[Eu+3] [Eu(1)^3+], the “contrast with increasing saturation power” value [2] is reported as “contrast continuously improved”, the “Observation of bound water” value [1] is reported as “Yes” and the “MT properties on saturating bound water” value [3] is reported as “strong MT properties”.
With CCOC(=O)CNC(=O)CN1CCN(CC(=O)NCC(=O)OCC)CCN(CC(=O)NCC(=O)OCC)CCN(CC(=O)NCC(=O)OCC)CC1.[Ho+3] [Ho(1)^3+] the “Observation of bound water” value [1] was “No”.
In the case of CCOC(=O)CNC(=O)CN1CCN(CC(=O)NCC(=O)OCC)CCN(CC(=O)NCC(=O)OCC)CCN(CC(=O)NCC(=O)OCC)CC1.[Nd+3] [Nd(1)^3+], the “contrast with increasing saturation power” value [2] is reported as “contrast continuously improved”, the “Observation of bound water” value [1] is reported as “Yes” and the “MT properties on saturating bound water” value [3] is reported as “strong MT properties”.
With CCOC(=O)CNC(=O)CN1CCN(CC(=O)NCC(=O)OCC)CCN(CC(=O)NCC(=O)OCC)CCN(CC(=O)NCC(=O)OCC)CC1.[Pr+3] [Pr(1)^3+] the “Observation of bound water” value [1] was “Yes” and the “MT properties on saturating bound water” value [3] was “strong MT properties”.
With CCOC(=O)CNC(=O)CN1CCN(CC(=O)NCC(=O)OCC)CCN(CC(=O)NCC(=O)OCC)CCN(CC(=O)NCC(=O)OCC)CC1.[Sm+3] [Sm(1)^3+] the “Observation of bound water” value [1] was “Yes”.
With CCOC(=O)CNC(=O)CN1CCN(CC(=O)NCC(=O)OCC)CCN(CC(=O)NCC(=O)OCC)CCN(CC(=O)NCC(=O)OCC)CC1.[Tb+3] [Tb(1)^3+] the “Observation of bound water” value [1] was “No”.
With CCOC(=O)CNC(=O)CN1CCN(CC(=O)NCC(=O)OCC)CCN(CC(=O)NCC(=O)OCC)CCN(CC(=O)NCC(=O)OCC)CC1.[Tm+3] [Tm(1)^3+] the “Observation of bound water” value [1] was “Yes”.
For NC(=O)CN1CCN(CC(N)=O)CCN(CC(N)=O)CCN(CC(N)=O)CC1.[Tm+3] [Tm(9)^3+], the “1H NMR visibility of bound water molecules” value [4] was “invisible”.
With CCOC(=O)CNC(=O)CN1CCN(CC(=O)NCC(=O)OCC)CCN(CC(=O)NCC(=O)OCC)CCN(CC(=O)NCC(=O)OCC)CC1.[Yb+3] [Yb(1)^3+] the “Observation of bound water” value [1] was “Yes” and the “MT properties on saturating bound water” value [3] was “no MT effect could be observed”.
In the case of NC(=O)CN1CCN(CC(N)=O)CCN(CC(N)=O)CCN(CC(N)=O)CC1.[Yb+3] [Yb(9)^3+], the “concentration at which paramagnetic relaxation effect predominates” value [5] is reported as no less than 20 mM, the “optimal concentration for MT effect” value [5] is reported as “about 20 mM” and the “MTR (ratios of MT) versus pH” value [6] is reported as “increases as a function of increasing pH”. The “pH of minimum in MT (Mon/Moff)” value ([6]; saturating amide protons) was roughly 7.4 and the “1H NMR visibility of bound water molecules” value [4] was “invisible”.
